This is one part of the list.
These compounds were tested on phosphomevalonate kinase (Streptococcus pneumoniae D39) (assay: S. pneumoniae PMK inhibitors, primary screen, biochemical, mevalonate pathway, pilot trial included (AID 539;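 note: 0% = full reaction with DMSO carrier and 100% = background rate without enzyme reaction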)). Details: purified PMK, PK/LDH-coupled NADH absorbance 340 nm; measured here: pilot screen replicates; at 10 µM; stronger effect = higher value.

Row | Compound | inhibition [%]
1 | Fc1ccccc1NC1CCN(Cc2ccccc2)CC1 | 0
